36 targets from the supplement of paper PMC12067093, “Discovery and optimisation of a covalent ligand for TRIM25 and its application to targeted protein ubiquitination” (Chemical Science, 2025) can be followed below.

Amino acid sequences for entries named in this document (tags omitted). A change or cut given only in a name is not applied to a line headed by its entry.
UniProt Q99575: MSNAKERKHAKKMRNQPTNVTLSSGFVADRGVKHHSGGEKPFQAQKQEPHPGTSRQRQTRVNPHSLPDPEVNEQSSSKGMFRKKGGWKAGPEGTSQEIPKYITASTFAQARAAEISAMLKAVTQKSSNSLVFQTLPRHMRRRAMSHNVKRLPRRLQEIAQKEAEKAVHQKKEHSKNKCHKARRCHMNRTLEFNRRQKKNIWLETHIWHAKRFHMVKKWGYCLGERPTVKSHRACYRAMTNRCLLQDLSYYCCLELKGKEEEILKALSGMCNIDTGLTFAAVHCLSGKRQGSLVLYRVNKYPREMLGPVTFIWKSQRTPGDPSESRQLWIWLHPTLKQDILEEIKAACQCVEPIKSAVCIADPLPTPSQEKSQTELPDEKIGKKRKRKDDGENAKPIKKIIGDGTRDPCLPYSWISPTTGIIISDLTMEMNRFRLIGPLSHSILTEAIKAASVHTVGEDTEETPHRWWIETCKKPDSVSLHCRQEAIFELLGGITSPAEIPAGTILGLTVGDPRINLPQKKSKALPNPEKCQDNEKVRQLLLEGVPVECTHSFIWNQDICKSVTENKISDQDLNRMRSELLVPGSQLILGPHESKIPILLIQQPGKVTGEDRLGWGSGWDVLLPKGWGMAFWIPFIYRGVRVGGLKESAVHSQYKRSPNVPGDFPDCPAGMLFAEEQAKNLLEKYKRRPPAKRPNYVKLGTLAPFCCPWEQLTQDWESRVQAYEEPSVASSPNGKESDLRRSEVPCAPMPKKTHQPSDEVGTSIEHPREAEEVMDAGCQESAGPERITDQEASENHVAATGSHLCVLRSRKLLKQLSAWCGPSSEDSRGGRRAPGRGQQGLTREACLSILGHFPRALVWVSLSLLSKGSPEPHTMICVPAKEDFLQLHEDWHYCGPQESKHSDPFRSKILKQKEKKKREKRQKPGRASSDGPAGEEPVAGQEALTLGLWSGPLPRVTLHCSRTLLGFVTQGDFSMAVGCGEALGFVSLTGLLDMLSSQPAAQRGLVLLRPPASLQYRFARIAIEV
UniProt O15160, whole entry, looked up: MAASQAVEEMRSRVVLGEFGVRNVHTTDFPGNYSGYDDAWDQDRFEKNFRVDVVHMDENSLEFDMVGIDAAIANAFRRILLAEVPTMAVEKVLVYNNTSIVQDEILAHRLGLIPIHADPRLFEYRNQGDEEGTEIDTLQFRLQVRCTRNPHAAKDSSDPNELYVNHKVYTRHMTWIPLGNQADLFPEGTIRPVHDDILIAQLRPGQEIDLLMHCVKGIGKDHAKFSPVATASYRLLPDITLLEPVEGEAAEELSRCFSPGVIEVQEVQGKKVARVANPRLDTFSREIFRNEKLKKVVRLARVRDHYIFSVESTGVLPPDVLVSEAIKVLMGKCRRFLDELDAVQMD
UniProt P09086: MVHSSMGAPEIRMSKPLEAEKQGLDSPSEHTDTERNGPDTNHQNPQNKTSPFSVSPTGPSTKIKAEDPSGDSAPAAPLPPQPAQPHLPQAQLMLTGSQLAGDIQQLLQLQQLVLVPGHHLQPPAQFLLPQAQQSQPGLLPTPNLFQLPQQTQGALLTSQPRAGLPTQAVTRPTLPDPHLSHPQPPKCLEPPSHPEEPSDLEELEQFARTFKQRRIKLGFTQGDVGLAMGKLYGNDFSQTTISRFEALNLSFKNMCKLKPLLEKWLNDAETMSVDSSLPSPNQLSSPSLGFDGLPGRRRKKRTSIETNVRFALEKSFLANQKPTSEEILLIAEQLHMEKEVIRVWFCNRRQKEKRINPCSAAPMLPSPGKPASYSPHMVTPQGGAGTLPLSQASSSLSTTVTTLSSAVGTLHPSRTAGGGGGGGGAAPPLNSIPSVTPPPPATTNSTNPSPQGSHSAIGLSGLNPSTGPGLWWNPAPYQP
UniProt O95602, whole entry, looked up: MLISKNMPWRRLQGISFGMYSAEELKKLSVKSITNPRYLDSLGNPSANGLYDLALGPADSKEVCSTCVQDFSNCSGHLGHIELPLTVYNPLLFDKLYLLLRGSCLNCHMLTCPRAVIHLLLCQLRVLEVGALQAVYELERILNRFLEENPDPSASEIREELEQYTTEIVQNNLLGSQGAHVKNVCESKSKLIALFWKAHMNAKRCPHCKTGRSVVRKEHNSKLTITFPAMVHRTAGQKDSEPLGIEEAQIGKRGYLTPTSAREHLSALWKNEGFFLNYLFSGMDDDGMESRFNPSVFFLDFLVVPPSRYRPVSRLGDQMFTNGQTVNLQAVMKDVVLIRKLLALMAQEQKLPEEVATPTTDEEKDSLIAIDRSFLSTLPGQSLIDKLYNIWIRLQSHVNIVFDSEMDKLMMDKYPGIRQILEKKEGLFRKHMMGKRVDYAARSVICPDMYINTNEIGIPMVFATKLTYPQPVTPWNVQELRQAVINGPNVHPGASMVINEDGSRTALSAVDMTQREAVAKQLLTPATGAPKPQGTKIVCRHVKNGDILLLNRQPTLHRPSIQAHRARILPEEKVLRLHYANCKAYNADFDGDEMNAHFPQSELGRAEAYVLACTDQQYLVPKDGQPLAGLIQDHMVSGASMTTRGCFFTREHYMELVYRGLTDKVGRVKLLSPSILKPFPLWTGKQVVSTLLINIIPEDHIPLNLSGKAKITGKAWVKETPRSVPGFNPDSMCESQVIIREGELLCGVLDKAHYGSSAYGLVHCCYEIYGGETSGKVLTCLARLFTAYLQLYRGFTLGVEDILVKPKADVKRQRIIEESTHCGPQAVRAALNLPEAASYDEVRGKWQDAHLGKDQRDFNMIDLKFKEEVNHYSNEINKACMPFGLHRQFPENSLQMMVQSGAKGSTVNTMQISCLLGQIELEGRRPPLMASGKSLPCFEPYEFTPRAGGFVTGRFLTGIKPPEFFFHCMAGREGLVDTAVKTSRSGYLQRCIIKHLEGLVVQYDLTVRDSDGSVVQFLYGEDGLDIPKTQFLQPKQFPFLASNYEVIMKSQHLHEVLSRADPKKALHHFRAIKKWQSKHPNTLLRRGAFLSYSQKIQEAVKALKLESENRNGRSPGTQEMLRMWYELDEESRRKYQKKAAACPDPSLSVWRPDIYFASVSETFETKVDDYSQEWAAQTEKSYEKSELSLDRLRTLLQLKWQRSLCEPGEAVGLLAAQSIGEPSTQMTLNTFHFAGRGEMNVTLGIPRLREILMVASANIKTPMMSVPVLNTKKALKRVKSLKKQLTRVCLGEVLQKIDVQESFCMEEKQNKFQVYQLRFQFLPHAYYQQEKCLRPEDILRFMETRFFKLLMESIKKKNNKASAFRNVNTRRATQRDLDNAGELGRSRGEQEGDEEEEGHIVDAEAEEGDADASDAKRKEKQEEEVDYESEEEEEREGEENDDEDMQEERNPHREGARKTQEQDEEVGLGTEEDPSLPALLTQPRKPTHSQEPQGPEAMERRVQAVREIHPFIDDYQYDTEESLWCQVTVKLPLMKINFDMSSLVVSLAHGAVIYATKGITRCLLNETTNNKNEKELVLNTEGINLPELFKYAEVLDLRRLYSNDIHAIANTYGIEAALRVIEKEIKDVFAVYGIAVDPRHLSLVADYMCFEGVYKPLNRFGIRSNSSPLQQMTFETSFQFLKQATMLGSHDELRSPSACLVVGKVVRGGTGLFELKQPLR
UniProt Q08752, whole entry, looked up: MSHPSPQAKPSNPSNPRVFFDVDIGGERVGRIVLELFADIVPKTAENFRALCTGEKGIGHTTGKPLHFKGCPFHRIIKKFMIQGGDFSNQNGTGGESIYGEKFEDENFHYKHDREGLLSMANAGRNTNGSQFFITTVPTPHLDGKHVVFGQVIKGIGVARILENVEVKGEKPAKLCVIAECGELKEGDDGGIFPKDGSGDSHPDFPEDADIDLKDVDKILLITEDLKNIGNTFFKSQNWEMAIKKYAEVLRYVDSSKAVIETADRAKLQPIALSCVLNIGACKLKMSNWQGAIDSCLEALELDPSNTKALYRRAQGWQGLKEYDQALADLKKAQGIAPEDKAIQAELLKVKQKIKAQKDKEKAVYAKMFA
UniProt Q9H9Y6, whole entry, looked up: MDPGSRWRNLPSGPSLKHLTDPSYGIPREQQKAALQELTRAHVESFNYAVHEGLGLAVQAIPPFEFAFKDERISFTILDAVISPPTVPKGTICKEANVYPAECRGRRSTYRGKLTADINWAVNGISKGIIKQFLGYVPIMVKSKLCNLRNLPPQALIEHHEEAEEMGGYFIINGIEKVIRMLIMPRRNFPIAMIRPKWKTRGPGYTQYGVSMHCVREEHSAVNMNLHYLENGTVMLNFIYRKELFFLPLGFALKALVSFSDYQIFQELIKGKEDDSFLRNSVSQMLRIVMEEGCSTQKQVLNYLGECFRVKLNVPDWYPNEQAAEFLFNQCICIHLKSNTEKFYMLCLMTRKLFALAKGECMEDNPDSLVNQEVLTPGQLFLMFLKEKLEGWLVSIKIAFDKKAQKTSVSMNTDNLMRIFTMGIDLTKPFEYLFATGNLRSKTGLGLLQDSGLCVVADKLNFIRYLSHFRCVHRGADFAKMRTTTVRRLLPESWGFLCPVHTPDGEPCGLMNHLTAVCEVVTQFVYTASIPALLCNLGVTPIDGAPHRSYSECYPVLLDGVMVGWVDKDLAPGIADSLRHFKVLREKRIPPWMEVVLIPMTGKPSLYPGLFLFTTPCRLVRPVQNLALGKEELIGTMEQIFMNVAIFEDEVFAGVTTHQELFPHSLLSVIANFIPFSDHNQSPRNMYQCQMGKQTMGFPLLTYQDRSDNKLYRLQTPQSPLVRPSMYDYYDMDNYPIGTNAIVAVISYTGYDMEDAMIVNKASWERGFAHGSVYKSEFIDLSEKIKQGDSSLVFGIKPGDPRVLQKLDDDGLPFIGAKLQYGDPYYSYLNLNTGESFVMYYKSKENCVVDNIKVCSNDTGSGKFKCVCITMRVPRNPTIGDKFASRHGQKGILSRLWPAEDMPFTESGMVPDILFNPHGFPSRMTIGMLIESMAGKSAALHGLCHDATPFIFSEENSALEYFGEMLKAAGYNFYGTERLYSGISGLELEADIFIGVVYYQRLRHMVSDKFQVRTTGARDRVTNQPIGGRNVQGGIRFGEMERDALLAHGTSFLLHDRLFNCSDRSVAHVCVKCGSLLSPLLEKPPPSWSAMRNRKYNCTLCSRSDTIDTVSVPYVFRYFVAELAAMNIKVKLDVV
UniProt Q9BY77: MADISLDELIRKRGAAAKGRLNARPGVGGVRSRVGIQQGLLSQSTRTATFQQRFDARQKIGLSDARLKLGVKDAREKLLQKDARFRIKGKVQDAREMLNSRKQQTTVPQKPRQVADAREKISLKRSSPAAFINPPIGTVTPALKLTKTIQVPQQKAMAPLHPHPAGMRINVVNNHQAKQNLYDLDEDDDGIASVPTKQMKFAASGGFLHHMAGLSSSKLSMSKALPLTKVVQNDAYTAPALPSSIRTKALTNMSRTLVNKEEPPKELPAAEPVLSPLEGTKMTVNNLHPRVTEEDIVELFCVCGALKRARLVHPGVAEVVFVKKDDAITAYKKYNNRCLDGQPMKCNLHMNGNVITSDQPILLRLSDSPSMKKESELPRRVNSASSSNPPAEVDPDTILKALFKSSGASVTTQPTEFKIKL
UniProt Q9Y535: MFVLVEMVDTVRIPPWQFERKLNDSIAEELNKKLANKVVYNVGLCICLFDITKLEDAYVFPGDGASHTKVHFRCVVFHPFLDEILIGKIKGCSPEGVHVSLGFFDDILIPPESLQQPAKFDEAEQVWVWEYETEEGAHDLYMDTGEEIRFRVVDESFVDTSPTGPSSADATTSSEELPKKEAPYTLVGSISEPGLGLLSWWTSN
UniProt Q15063: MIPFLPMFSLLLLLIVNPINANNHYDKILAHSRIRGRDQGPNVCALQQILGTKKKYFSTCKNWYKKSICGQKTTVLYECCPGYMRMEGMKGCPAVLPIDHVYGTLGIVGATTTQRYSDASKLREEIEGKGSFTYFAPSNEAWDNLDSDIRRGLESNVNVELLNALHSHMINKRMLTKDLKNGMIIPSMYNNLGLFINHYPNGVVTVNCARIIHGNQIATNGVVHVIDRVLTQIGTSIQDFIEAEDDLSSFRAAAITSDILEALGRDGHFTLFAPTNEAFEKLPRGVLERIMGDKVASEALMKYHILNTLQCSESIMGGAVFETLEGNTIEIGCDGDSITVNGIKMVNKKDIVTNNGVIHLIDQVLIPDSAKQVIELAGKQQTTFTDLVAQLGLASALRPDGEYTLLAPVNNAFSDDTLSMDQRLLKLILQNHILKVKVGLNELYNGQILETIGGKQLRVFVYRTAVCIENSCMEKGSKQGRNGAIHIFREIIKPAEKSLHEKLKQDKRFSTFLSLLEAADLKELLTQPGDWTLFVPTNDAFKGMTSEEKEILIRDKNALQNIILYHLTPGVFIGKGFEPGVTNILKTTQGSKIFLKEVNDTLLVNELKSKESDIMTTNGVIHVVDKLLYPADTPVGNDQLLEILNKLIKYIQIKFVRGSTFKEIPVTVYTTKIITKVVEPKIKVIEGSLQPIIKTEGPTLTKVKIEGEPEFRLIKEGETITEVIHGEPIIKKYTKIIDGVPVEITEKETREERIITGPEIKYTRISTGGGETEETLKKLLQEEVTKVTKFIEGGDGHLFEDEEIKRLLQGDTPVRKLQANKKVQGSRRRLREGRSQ

The list shows a part of the results.
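Note: competitive chemoproteomic profiling in live THP-1 cells with an iodoacetamide desthiobiotin (IA-DTB) probe, comparing probe-labelled peptide intensities in compound-treated cells against DMSO-treated controls.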

Compound in the first test: CC1Cc2ccccc2N1C(=O)C1CCCN(C1)C(=O)CCl (mixture of isomers) [TRIM25 ligand 11 (diastereomer mixture)]
Briefly: probe-labelled cysteine peptide fold change vs DMSO (competition) (log2 fold change); higher = less target engagement (more negative = stronger competition). As to conditions: 10 µM; THP-1; incubation time: 4 h.
“POLD1_P28340_338_GIFPEPERDPVIQICSLGLR (UniProt P28340)”: the “probe-labelled cysteine peptide fold change” value was 0.00962.

“POP1_Q99575_745_SEVPCAPMPK (UniProt Q99575)”: the “probe-labelled cysteine peptide fold change” value was -0.168.

Consider “PPAT_Q06203_207_DPYGNRPLCIGR (UniProt Q06203)”, for which the “probe-labelled cysteine peptide fold change” value was 0.114.

Turning to “POLR1C_O15160_256_CFSPGVIEVQEVQGKK (UniProt O15160)”, the “probe-labelled cysteine peptide fold change” value was -0.429.

As for “POLR2J_P52435_31_VPNACLFTINK (UniProt P52435)”, the “probe-labelled cysteine peptide fold change” value is -0.175.

Consider “POLR3C_Q9BUI4_9_LCSLLLQEHFGEIVEK (UniProt Q9BUI4)”, for which the “probe-labelled cysteine peptide fold change” value was -0.113.

For “POU2F2_P09086_187_CLEPPSHPEEPSDLEELEQFAR (UniProt P09086)”, the “probe-labelled cysteine peptide fold change” value was 0.123.

As to “POLR2B_P30876_1093_DCQIAHGAAQFLR (UniProt P30876)”, the “probe-labelled cysteine peptide fold change” value is -0.0664.

Consider “POLR2B_P30876_1137_THTYECR (UniProt P30876)”, for which the “probe-labelled cysteine peptide fold change” value stood at 0.22.

Turning to “POLD1_P28340_1026_TVLSHQGAVCEFCQPR (UniProt P28340)”, the “probe-labelled cysteine peptide fold change” value is -0.0534.

Take “POP1_Q99575_283_ALSGMCNIDTGLTFAAVHCLSGK (UniProt Q99575)”: the “probe-labelled cysteine peptide fold change” value was -0.14.

Turning to “POLR2B_P30876_224_SCLENSSRPTSTIWVSMLAR (UniProt P30876)”, the “probe-labelled cysteine peptide fold change” value is -0.089.

For “PPFIBP1_Q86W92_140_IRDLEFCLEEHREK (UniProt Q86W92)”, the “probe-labelled cysteine peptide fold change” value is -0.0769.

As to “POLR1A_O95602_1304_IDVQESFCMEEK (UniProt O95602)”, the “probe-labelled cysteine peptide fold change” value was 0.122.

In the case of “POR_P16435_363_KHPFPCPTSYR (UniProt P16435)”, the “probe-labelled cysteine peptide fold change” value worked out at 0.068.

For “PPID_Q08752_275+282_LQPIALSCVLNIGACK (UniProt Q08752)”, the “probe-labelled cysteine peptide fold change” value was 0.246.

Turning to “POLR1B_Q9H9Y6_454_TGLGLLQDSGLCVVADK (UniProt Q9H9Y6)”, the “probe-labelled cysteine peptide fold change” value came out at 0.0155.

In the case of “POLRMT_O00411_591_LLAEMLVQATQMPCSLDK (UniProt O00411)”, the “probe-labelled cysteine peptide fold change” value is 0.305.

On to “POLDIP3_Q9BY77_338_CLDGQPMK (UniProt Q9BY77)”, for which the “probe-labelled cysteine peptide fold change” value was -0.0712.

For “POLA2_Q14181_590_QSPCIAVQVVR (UniProt Q14181)”, the “probe-labelled cysteine peptide fold change” value was -0.103.

Turning to “POP1_Q99575_804_ITDQEASENHVAATGSHLCVLR (UniProt Q99575)”, the “probe-labelled cysteine peptide fold change” value is -0.094.

Take “PPIC_P45877_191_VIDGMTVVHSIELQATDGHDRPLTNCSIINSGK (UniProt P45877)”: the “probe-labelled cysteine peptide fold change” value was determined as 0.251.

Take “PPIA_P62937-2_2_CQGGDFTR (UniProt P62937)”: the “probe-labelled cysteine peptide fold change” value is 0.165.

As to “PPIG_Q13427_310_ECNPPNSQPASYQR (UniProt Q13427)”, the “probe-labelled cysteine peptide fold change” value was 0.00252.

“POR_P16435_566_EVGETLLYYGCR (UniProt P16435)”: the “probe-labelled cysteine peptide fold change” value is 0.139.

For the target “POLR2I_P36954_119_LYYVCTAPHCGHR (UniProt P36954)”, the “probe-labelled cysteine peptide fold change” value stood at 0.355.

“POLR3H_Q9Y535_74_CVVFHPFLDEILIGK (UniProt Q9Y535)”: the “probe-labelled cysteine peptide fold change” value was 0.0435.

For the target “POSTN_Q15063_44_DQGPNVCALQQILGTKK (UniProt Q15063)”, the “probe-labelled cysteine peptide fold change” value was determined as 0.367.

On to “POLR3E_Q9NVU0_676_LTQECGEDLSK (UniProt Q9NVU0)”, for which the “probe-labelled cysteine peptide fold change” value was -0.00852.

Regarding “POLR1B_Q9H9Y6_103_EANVYPAECR (UniProt Q9H9Y6)”, the “probe-labelled cysteine peptide fold change” value stood at 0.0526.

As for “POLR2G_P62487_127_HSIPSEMEFDPNSNPPCYK (UniProt P62487)”, the “probe-labelled cysteine peptide fold change” value is -0.0447.

For the target “POP1_Q99575_471_WWIETCK (UniProt Q99575)”, the “probe-labelled cysteine peptide fold change” value was -0.0505.

Take “POGZ_Q7Z3K3_781+782_YSTCCSR (UniProt Q7Z3K3)”: the “probe-labelled cysteine peptide fold change” value was -0.037.

For the target “PPID_Q08752_181_LCVIAECGELK (UniProt Q08752)”, the “probe-labelled cysteine peptide fold change” value turned out to be 0.0345.

As for “POFUT1_Q9H488_140_KTCPMK (UniProt Q9H488)”, the “probe-labelled cysteine peptide fold change” value is -0.0813.

With “POLR2M_P0CAP2_65_AAIAECEEVRR (UniProt P0CAP2)”, the “probe-labelled cysteine peptide fold change” value is -0.0353.

The same test, now with this note: 50 µM; THP-1; incubation time: 4 h.
For the target “POLD1_P28340_338_GIFPEPERDPVIQICSLGLR (UniProt P28340)”, the “probe-labelled cysteine peptide fold change” value was 0.183.

Take “POP1_Q99575_745_SEVPCAPMPK (UniProt Q99575)”: the “probe-labelled cysteine peptide fold change” value is -0.363.

Take “PPAT_Q06203_207_DPYGNRPLCIGR (UniProt Q06203)”: the “probe-labelled cysteine peptide fold change” value was found to be 0.222.

Consider “POLR1C_O15160_256_CFSPGVIEVQEVQGKK (UniProt O15160)”, for which the “probe-labelled cysteine peptide fold change” value was -0.154.

For the target “POLR2J_P52435_31_VPNACLFTINK (UniProt P52435)”, the “probe-labelled cysteine peptide fold change” value was -0.0946.

For “POLR3C_Q9BUI4_9_LCSLLLQEHFGEIVEK (UniProt Q9BUI4)”, the “probe-labelled cysteine peptide fold change” value is -0.0577.

Turning to “POU2F2_P09086_187_CLEPPSHPEEPSDLEELEQFAR (UniProt P09086)”, the “probe-labelled cysteine peptide fold change” value is -0.0384.

Consider “POLR2B_P30876_1093_DCQIAHGAAQFLR (UniProt P30876)”, for which the “probe-labelled cysteine peptide fold change” value is -0.0912.

In the case of “POLR2B_P30876_1137_THTYECR (UniProt P30876)”, the “probe-labelled cysteine peptide fold change” value turned out to be 0.0583.

In the case of “POLD1_P28340_1026_TVLSHQGAVCEFCQPR (UniProt P28340)”, the “probe-labelled cysteine peptide fold change” value came out at 0.265.

Turning to “POP1_Q99575_283_ALSGMCNIDTGLTFAAVHCLSGK (UniProt Q99575)”, the “probe-labelled cysteine peptide fold change” value turned out to be 0.0209.

As for “POLR2B_P30876_224_SCLENSSRPTSTIWVSMLAR (UniProt P30876)”, the “probe-labelled cysteine peptide fold change” value is -0.0468.

Consider “PPFIBP1_Q86W92_140_IRDLEFCLEEHREK (UniProt Q86W92)”, for which the “probe-labelled cysteine peptide fold change” value was -0.054.

For the target “POLR1A_O95602_1304_IDVQESFCMEEK (UniProt O95602)”, the “probe-labelled cysteine peptide fold change” value is -0.356.

Take “POR_P16435_363_KHPFPCPTSYR (UniProt P16435)”: the “probe-labelled cysteine peptide fold change” value stood at 0.0389.

With “PPID_Q08752_275+282_LQPIALSCVLNIGACK (UniProt Q08752)”, the “probe-labelled cysteine peptide fold change” value is 0.38.

Take “POLR1B_Q9H9Y6_454_TGLGLLQDSGLCVVADK (UniProt Q9H9Y6)”: the “probe-labelled cysteine peptide fold change” value is -0.00727.

On to “POLRMT_O00411_591_LLAEMLVQATQMPCSLDK (UniProt O00411)”, for which the “probe-labelled cysteine peptide fold change” value was -0.00917.

Consider “POLDIP3_Q9BY77_338_CLDGQPMK (UniProt Q9BY77)”, for which the “probe-labelled cysteine peptide fold change” value was -0.127.

For “POLA2_Q14181_590_QSPCIAVQVVR (UniProt Q14181)”, the “probe-labelled cysteine peptide fold change” value worked out at 0.123.

Consider “POP1_Q99575_804_ITDQEASENHVAATGSHLCVLR (UniProt Q99575)”, for which the “probe-labelled cysteine peptide fold change” value was -0.219.

As for “PPIC_P45877_191_VIDGMTVVHSIELQATDGHDRPLTNCSIINSGK (UniProt P45877)”, the “probe-labelled cysteine peptide fold change” value came to 0.00262.

With “PPIA_P62937-2_2_CQGGDFTR (UniProt P62937)”, the “probe-labelled cysteine peptide fold change” value came to 0.13.

On to “PPIG_Q13427_310_ECNPPNSQPASYQR (UniProt Q13427)”, for which the “probe-labelled cysteine peptide fold change” value was -0.146.

As for “POR_P16435_566_EVGETLLYYGCR (UniProt P16435)”, the “probe-labelled cysteine peptide fold change” value was found to be 0.156.

With “POLR2I_P36954_119_LYYVCTAPHCGHR (UniProt P36954)”, the “probe-labelled cysteine peptide fold change” value was determined as 0.301.

“POLR3H_Q9Y535_74_CVVFHPFLDEILIGK (UniProt Q9Y535)”: the “probe-labelled cysteine peptide fold change” value stood at 0.168.

For the target “POSTN_Q15063_44_DQGPNVCALQQILGTKK (UniProt Q15063)”, the “probe-labelled cysteine peptide fold change” value came out at 0.289.

Take “POLR3E_Q9NVU0_676_LTQECGEDLSK (UniProt Q9NVU0)”: the “probe-labelled cysteine peptide fold change” value came out at 0.0997.

On to “POLR1B_Q9H9Y6_103_EANVYPAECR (UniProt Q9H9Y6)”, for which the “probe-labelled cysteine peptide fold change” value was 0.11.

On to “POLR2G_P62487_127_HSIPSEMEFDPNSNPPCYK (UniProt P62487)”, for which the “probe-labelled cysteine peptide fold change” value is -0.117.

Regarding “POP1_Q99575_471_WWIETCK (UniProt Q99575)”, the “probe-labelled cysteine peptide fold change” value turned out to be 0.0147.

As to “POGZ_Q7Z3K3_781+782_YSTCCSR (UniProt Q7Z3K3)”, the “probe-labelled cysteine peptide fold change” value was found to be 0.201.

Turning to “PPID_Q08752_181_LCVIAECGELK (UniProt Q08752)”, the “probe-labelled cysteine peptide fold change” value is -0.183.

As for “POFUT1_Q9H488_140_KTCPMK (UniProt Q9H488)”, the “probe-labelled cysteine peptide fold change” value is -0.0687.

Consider “POLR2M_P0CAP2_65_AAIAECEEVRR (UniProt P0CAP2)”, for which the “probe-labelled cysteine peptide fold change” value stood at 0.148.
